Measurements reported in PubChem BioAssay AID1053208 (Peter MacCallum Cancer Centre, 2014).
Screen: 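Synthetic lethal interactions between gene loss and doxorubicin in osteosarcoma cells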 (primary screen). Cell system: mouse osteosarcoma cells, early-passage culture from an engineered mouse model of fibroblastic bone tumour. Knock-down reagent: siRNA pool against mouse genes, 40 nM. Time to read-out: about 120 h (48 h before drug, then 72 h with drug). Conditions: doxorubicin 100 nM for 72 h, roughly 30-40% inhibitory dose. Measured: 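Luminescent ATP signal taken as viability with or without 100 nM doxorubicin for 72 h; mean of two wells set against non-targeting siRNA and turned into robust z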. Scale: viability z-score with doxorubicin: higher = more viable cells under doxorubicin; viability z-score without drug: higher = more viable cells with knock-down alone. Call rule: 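a pool counts as active when its viability z-score with doxorubicin is -2 or below and its z-score without drug lies between -2 and 2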.
Here is a random part of about 17,000 reagents. Of all reagents, 788 (4.7%) were called active. 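Calls rest on z-score classes alone; an extra cut-off of viability at most 70% of control was not applied to them.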 Not all columns of the deposit are shown.

The first 2 records, to show the layout:
Fhod1 (formin homology 2 domain containing 1)
- combined z-score class: no change with or without drug
- viability z-score with doxorubicin: 0.9
- viability z-score without drug: 0.84
- outcome: inactive

Eif1 (eukaryotic translation initiation factor 1)
- combined z-score class: no change with or without drug
- viability z-score with doxorubicin: -1.24
- viability z-score without drug: 0.34
- outcome: inactive

Main list, repeating the preview:
Fhod1 (formin homology 2 domain containing 1)
- combined z-score class: no change with or without drug
- viability z-score with doxorubicin: 0.9
- viability z-score without drug: 0.84
- outcome: inactive

Eif1 (eukaryotic translation initiation factor 1)
- combined z-score class: no change with or without drug
- viability z-score with doxorubicin: -1.24
- viability z-score without drug: 0.34
- outcome: inactive

Frey1 (Frey regulator of sperm-oocyte fusion 1)
- combined z-score class: low cell count with and without drug
- viability z-score with doxorubicin: -2.47
- viability z-score without drug: -2.87
- outcome: inactive

Gng12 (guanine nucleotide binding protein (G protein), gamma 12)
- combined z-score class: no change with or without drug
- viability z-score with doxorubicin: 1.46
- viability z-score without drug: 1.85
- outcome: inactive

Zfp59 (zinc finger protein 59)
- combined z-score class: no change with or without drug
- viability z-score with doxorubicin: -1.57
- viability z-score without drug: 0.67
- outcome: inactive

Ifnl3 (interferon lambda 3)
- combined z-score class: no change with or without drug
- viability z-score with doxorubicin: 0.9
- viability z-score without drug: 1.35
- outcome: inactive

Prss23 (serine protease 23)
- combined z-score class: low cell count with doxorubicin only
- viability z-score with doxorubicin: -2.7
- viability z-score without drug: -0.51
- outcome: active

Mlkl (mixed lineage kinase domain-like)
- combined z-score class: no change with or without drug
- viability z-score with doxorubicin: 0.45
- viability z-score without drug: 0
- outcome: inactive

Prr3 (proline-rich polypeptide 3)
- combined z-score class: no change with or without drug
- viability z-score with doxorubicin: -1.46
- viability z-score without drug: 0.17
- outcome: inactive

Mta2 (metastasis-associated gene family, member 2)
- combined z-score class: no change with or without drug
- viability z-score with doxorubicin: 1.01
- viability z-score without drug: -0.51
- outcome: inactive

Cc2d1a (coiled-coil and C2 domain containing 1A)
- combined z-score class: no change with or without drug
- viability z-score with doxorubicin: 0
- viability z-score without drug: 1.01
- outcome: inactive

Aatk (apoptosis-associated tyrosine kinase)
- combined z-score class: no change with or without drug
- viability z-score with doxorubicin: 0.22
- viability z-score without drug: 0.84
- outcome: inactive

Sel1l (sel-1 suppressor of lin-12-like (C. elegans))
- combined z-score class: no change with or without drug
- viability z-score with doxorubicin: -0.22
- viability z-score without drug: -0.51
- outcome: inactive

Gpr149 (G protein-coupled receptor 149)
- combined z-score class: no change with or without drug
- viability z-score with doxorubicin: 0.34
- viability z-score without drug: 0.51
- outcome: inactive

AU044581
- combined z-score class: no change with or without drug
- viability z-score with doxorubicin: -0.45
- viability z-score without drug: -0.84
- outcome: inactive

Prkch (protein kinase C, eta)
- combined z-score class: no change with or without drug
- viability z-score with doxorubicin: 1.12
- viability z-score without drug: 1.52
- outcome: inactive

D130060J02Rik (RIKEN cDNA D130060J02 gene)
- combined z-score class: no change with or without drug
- viability z-score with doxorubicin: -0.9
- viability z-score without drug: 0.84
- outcome: inactive

Mtx1 (metaxin 1)
- combined z-score class: high cell count with doxorubicin only
- viability z-score with doxorubicin: 2.25
- viability z-score without drug: 0.17
- outcome: inactive

Ncor1 (nuclear receptor co-repressor 1)
- combined z-score class: no change with or without drug
- viability z-score with doxorubicin: 0.22
- viability z-score without drug: 0.34
- outcome: inactive
